Measurements from publication PMC7090148 (2020).

Legend:
Mouse OFD1 G139S (mouse) = molecular target: T1, Mouse OFD1 G139S (mouse) (UniProt Q80Z25); assay: co-IP; OFD1 mutants co-expressed with TRAPPC8 or TRAPPC12; IP efficiency as ratio of immunoprecipitated TRAPPC8/OFD1 or TRAPPC12/OFD1; cell line and IP antibody not stated for this panel
T1 sequence: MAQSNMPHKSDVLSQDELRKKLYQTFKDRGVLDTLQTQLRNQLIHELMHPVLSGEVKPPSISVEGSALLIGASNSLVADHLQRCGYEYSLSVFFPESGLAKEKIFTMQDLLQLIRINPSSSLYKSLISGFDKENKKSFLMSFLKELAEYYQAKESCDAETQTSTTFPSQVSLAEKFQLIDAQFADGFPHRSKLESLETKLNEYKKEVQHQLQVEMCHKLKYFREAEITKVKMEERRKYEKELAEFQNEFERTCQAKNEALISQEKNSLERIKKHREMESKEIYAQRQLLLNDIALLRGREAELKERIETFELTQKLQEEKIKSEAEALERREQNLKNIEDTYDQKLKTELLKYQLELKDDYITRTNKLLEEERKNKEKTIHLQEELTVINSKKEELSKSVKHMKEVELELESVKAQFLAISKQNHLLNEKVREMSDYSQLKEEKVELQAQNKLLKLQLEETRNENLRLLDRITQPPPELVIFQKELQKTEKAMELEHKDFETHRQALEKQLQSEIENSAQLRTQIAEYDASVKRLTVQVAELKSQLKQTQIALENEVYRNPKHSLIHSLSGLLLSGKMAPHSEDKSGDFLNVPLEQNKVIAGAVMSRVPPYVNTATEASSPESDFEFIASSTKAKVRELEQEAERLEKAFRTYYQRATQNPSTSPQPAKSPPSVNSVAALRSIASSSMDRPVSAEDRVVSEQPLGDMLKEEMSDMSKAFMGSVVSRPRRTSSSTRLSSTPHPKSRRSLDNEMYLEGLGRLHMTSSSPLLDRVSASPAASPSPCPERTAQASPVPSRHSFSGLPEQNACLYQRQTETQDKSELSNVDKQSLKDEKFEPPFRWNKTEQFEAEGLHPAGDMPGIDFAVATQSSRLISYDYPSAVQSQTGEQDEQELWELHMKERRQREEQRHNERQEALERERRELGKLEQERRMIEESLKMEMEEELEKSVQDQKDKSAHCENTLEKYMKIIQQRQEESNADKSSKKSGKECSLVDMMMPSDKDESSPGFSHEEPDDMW

Mouse OFD1 S75F (mouse) = molecular target: T2, Mouse OFD1 S75F (mouse) (UniProt Q80Z25); assay: as above
T2 sequence: T1 sequence with S73F, S137G

binding (Mouse OFD1 G139S (mouse)): binds
binding (Mouse OFD1 S75F (mouse)): binds
Substance: NTAP-tagged TRAPPC8 (mouse)

Substitutions are numbered along the chain they refer to. No constants are given. Whether binding was seen depends on the method and setting. In cells and extracts the contact can be indirect. A result given as binding can be weak or reduced; the word gives no strength.
